Results are given in words; binding and its absence hold for the method and conditions named. In cells and extracts the contact can be indirect. Some results given as binding are weak or reduced against the parent protein; the word gives no strength. Each block holds one substance with its values, some of them ahead of it.
Key:
[1] = target: FLAG-IRS-1 (rat) (UniProt P35570); assay: co-IP; HEK293 cells expressing FLAG-IRS-1 or FLAG-IRS-2, serum-free 24 h; lysates immunoprecipitated with anti-FLAG antibody (FLAG-agarose beads), western blot for USP9X
[2] = target: IGF-IR-FLAG (UniProt P08069); assay: co-IP; HEK293T cells expressing IGF-IR-FLAG or FLAG alone; immunoprecipitation and western blotting with indicated antibodies
[3] = target: IRS-1, endogenous in PC3 cells (human (endogenous in PC3)) (UniProt P35568); assay: co-IP; endogenous proteins of PC3 cells, serum-starved 24 h, without or with 100 ng/ml IGF-I for 5 min; immunoprecipitation and western blotting with indicated antibodies

Chains of the proteins cited; added tags and fusions are not shown. Residues count along the entry.
UniProt P35570: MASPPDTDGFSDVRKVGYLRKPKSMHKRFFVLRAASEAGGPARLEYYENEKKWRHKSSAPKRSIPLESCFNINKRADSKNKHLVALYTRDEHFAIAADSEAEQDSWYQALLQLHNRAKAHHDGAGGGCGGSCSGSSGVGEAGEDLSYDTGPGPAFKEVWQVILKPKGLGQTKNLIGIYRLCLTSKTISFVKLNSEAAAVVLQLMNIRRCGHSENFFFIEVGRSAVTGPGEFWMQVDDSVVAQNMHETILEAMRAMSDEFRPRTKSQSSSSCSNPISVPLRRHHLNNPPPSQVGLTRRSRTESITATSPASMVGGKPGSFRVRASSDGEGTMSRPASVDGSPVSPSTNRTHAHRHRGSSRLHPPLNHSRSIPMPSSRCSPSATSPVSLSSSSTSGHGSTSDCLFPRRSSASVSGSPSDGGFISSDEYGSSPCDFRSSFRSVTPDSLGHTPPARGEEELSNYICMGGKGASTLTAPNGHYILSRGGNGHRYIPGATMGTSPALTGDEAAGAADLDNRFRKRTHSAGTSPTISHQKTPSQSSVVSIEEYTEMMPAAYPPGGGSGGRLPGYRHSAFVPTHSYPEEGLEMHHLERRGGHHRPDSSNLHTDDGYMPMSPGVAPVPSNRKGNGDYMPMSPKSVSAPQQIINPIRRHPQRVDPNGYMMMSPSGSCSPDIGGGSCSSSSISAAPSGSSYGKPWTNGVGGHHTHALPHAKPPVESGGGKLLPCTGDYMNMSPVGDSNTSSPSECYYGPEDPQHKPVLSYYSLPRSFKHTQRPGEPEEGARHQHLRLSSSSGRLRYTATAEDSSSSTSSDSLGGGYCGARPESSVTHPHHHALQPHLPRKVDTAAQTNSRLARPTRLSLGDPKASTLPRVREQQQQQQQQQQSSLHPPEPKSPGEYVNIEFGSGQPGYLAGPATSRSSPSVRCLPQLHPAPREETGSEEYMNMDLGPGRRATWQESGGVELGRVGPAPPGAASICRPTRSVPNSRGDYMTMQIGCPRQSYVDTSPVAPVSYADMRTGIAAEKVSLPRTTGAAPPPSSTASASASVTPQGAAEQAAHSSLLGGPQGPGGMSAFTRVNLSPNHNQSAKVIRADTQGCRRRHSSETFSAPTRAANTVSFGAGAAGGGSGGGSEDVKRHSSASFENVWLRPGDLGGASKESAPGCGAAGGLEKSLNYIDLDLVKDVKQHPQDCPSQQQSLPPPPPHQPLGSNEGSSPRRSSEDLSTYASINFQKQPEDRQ
UniProt P08069, residues 31-1367: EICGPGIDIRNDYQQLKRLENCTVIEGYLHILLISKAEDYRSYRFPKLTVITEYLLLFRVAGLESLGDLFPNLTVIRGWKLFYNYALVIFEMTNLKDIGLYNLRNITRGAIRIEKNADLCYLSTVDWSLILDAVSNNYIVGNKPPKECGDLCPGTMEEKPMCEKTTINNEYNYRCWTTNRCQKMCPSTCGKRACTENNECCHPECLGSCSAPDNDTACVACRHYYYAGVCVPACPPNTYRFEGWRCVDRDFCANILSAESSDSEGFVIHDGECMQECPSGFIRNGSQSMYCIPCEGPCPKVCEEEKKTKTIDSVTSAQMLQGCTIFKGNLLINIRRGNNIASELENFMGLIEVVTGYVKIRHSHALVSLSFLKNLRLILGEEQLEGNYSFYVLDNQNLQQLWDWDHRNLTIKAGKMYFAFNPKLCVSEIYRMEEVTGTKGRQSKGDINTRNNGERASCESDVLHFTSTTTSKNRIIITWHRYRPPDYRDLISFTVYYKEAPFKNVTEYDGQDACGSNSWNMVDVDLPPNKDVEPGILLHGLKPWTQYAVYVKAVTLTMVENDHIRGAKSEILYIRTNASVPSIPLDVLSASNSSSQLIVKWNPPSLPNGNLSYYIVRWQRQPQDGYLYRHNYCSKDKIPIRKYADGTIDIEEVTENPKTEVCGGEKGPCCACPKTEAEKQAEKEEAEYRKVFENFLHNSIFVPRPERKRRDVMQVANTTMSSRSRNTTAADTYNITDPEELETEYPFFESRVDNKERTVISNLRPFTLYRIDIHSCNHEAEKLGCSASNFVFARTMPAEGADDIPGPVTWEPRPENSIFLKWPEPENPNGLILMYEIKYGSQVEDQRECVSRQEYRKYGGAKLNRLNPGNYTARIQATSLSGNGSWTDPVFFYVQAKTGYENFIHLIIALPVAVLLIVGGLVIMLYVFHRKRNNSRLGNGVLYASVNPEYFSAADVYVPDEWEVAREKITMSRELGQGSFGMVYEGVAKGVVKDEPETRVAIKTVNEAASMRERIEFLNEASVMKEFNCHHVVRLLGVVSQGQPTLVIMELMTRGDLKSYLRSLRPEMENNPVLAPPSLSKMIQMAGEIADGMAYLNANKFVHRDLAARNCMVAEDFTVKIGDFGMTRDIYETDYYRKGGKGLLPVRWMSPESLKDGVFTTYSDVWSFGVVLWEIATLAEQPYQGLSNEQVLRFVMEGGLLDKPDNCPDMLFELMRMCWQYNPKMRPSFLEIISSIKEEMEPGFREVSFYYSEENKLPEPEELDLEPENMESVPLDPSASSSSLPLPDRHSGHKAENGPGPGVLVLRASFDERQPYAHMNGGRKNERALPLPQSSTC
UniProt P35568: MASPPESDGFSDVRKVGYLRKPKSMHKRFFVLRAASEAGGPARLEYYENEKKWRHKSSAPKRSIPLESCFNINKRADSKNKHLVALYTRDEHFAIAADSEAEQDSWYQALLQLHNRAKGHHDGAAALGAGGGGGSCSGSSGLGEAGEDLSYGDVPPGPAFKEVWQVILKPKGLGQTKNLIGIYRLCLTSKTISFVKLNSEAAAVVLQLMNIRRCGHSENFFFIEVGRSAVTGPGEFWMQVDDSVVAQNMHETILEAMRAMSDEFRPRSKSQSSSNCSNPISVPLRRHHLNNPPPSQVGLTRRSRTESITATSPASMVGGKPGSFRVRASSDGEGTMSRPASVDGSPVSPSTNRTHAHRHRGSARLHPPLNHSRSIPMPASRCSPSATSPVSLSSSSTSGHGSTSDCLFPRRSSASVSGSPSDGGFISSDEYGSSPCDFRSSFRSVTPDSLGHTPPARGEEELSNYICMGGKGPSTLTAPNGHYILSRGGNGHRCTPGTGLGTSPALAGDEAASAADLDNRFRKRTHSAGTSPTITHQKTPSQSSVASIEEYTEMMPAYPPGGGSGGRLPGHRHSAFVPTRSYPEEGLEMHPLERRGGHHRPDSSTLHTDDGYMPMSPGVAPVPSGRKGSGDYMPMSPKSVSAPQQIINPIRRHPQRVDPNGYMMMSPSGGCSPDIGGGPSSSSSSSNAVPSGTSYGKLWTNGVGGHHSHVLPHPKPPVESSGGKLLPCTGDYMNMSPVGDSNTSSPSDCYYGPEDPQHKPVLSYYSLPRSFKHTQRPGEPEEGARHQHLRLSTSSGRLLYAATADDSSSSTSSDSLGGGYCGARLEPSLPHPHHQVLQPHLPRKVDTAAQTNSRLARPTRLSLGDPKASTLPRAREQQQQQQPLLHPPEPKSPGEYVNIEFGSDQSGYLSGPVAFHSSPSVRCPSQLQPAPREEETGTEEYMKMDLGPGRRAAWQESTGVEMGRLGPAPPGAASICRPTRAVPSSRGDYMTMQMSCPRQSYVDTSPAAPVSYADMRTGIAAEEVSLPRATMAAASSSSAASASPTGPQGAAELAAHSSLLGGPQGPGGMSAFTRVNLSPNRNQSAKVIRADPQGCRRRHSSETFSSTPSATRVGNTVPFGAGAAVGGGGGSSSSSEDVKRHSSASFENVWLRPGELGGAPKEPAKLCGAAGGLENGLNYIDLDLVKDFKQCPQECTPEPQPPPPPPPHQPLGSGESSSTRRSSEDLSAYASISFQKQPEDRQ
UniProt Q93008: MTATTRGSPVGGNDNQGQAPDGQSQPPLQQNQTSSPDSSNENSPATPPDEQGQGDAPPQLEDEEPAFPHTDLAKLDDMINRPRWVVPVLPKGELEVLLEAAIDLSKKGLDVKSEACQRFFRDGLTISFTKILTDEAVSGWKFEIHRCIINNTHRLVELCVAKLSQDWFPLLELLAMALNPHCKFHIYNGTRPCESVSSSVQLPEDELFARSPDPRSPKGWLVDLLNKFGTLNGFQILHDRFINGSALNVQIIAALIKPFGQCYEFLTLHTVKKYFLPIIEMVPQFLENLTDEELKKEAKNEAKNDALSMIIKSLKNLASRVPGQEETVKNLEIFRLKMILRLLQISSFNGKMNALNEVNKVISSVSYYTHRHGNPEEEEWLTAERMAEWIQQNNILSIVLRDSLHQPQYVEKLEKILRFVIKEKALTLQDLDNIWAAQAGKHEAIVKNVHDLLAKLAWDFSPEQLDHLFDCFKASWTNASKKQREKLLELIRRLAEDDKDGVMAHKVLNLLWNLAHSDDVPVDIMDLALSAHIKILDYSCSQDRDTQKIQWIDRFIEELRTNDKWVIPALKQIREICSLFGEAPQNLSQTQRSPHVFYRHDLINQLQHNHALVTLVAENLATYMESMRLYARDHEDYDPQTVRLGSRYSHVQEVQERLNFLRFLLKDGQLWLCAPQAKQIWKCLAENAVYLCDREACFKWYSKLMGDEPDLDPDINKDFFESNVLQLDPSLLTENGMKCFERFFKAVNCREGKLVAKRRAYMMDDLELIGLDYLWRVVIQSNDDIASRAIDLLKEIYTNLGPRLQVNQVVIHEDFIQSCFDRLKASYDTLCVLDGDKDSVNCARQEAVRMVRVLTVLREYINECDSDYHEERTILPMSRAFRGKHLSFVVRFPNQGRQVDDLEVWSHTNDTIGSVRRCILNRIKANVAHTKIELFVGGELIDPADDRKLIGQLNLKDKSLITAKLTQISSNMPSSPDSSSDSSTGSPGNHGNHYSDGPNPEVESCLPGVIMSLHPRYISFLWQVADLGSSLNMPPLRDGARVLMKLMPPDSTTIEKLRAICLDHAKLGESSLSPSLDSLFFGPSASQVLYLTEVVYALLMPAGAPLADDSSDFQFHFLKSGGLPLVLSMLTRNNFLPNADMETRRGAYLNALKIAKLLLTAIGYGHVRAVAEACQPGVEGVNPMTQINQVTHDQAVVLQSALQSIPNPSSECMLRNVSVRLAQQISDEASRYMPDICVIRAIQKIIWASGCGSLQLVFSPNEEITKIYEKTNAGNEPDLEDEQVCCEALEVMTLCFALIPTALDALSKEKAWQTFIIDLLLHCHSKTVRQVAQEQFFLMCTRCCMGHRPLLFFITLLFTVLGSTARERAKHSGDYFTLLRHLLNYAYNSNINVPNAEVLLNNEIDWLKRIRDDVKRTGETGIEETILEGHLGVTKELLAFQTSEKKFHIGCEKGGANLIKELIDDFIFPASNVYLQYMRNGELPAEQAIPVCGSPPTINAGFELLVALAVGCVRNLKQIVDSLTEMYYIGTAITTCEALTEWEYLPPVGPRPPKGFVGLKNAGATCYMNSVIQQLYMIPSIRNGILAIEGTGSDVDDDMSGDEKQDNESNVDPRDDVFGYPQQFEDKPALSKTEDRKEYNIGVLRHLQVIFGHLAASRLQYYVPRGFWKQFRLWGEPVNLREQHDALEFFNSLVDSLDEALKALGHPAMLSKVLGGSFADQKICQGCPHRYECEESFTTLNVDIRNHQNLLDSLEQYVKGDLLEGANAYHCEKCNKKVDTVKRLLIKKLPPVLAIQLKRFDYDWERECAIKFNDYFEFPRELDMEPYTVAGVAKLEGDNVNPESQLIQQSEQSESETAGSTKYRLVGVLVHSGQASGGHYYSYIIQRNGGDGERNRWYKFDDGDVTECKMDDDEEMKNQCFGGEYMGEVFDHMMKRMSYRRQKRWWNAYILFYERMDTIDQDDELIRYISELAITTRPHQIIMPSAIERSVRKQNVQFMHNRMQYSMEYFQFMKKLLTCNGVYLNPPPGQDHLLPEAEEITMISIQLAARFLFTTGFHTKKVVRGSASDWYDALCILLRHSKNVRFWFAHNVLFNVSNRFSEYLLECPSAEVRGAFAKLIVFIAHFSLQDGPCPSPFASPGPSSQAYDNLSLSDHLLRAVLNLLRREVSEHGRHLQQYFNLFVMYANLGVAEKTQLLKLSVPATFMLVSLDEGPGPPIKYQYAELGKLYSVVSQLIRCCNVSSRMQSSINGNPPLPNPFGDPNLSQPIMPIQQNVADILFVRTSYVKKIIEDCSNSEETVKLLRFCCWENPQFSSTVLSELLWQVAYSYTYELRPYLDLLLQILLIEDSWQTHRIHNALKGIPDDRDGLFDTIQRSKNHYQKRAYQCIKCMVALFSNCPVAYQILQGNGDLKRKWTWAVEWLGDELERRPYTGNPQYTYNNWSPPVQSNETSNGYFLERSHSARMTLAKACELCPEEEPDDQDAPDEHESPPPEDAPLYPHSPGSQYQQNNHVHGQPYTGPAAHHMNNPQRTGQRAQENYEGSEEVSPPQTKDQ

binding [1]: binds
Substance: ubiquitin specific peptidase 9X (USP9X), endogenous in HEK293 cells (from UniProt Q93008 1-2554) (enzyme)

binding [2]: binds
Substance: ubiquitin specific peptidase 9X (USP9X), endogenous in HEK293T cells (from UniProt Q93008 1-2554) (enzyme)

binding [3]: binds
Substance: ubiquitin specific peptidase 9X (USP9X), endogenous in PC3 cells (from UniProt Q93008 1-2554) (enzyme)

Reference: publication PMC6188063
